Experimental findings from PMC3732290 are described below.

The chains behind the UniProt entries cited, without tags or fusion partners.
UniProt P51531: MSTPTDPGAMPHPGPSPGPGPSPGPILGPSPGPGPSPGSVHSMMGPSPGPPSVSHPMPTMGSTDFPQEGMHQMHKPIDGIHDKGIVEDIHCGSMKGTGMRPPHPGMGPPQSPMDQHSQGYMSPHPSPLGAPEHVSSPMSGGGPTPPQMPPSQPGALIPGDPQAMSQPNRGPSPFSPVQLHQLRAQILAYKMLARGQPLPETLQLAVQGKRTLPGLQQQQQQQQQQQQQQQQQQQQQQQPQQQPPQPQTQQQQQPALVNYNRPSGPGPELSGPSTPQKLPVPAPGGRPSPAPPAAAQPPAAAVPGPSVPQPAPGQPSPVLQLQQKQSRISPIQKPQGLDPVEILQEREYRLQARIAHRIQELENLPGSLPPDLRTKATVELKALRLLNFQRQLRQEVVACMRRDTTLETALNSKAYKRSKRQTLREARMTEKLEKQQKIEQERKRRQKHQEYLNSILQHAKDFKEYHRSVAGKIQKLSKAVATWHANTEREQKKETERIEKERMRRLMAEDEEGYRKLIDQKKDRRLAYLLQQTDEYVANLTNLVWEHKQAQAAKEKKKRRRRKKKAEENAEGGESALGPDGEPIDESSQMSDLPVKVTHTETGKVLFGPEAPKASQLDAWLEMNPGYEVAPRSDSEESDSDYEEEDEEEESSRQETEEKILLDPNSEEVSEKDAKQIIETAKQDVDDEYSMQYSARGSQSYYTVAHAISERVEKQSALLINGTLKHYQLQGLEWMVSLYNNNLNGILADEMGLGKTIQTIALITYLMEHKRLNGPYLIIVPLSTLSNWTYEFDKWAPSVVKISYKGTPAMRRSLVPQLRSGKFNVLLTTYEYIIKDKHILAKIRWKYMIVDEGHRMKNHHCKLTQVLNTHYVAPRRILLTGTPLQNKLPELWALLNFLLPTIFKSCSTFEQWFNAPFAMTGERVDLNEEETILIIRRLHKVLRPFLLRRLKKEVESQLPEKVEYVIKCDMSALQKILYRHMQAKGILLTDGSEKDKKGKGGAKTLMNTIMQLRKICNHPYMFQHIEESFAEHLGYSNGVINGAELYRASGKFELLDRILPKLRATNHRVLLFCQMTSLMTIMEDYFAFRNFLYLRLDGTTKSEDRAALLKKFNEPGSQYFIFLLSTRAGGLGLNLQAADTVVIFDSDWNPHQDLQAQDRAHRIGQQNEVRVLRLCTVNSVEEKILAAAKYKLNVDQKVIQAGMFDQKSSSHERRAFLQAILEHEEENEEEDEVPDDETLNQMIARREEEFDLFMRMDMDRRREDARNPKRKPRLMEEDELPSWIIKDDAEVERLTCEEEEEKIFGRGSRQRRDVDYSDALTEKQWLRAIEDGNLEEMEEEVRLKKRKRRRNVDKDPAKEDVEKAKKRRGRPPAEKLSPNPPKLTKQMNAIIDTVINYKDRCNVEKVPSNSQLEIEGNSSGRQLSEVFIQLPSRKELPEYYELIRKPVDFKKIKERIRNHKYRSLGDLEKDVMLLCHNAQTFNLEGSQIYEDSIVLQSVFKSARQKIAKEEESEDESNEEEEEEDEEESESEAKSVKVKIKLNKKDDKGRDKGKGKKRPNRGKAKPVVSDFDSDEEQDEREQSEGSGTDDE

One test addresses T1, SCAI aa 1–212 (n-t) (UniProt Q8N9R8).
T1 sequence: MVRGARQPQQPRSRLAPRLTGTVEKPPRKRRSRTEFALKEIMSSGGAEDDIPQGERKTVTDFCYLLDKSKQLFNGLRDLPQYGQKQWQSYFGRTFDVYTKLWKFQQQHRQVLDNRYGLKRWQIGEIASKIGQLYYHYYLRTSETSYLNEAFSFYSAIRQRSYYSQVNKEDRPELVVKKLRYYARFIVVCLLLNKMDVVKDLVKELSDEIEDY
The test is described as follows: co-IP; HEK293 cells transfected with Myc-BRM and Flag-SCAI constructs, lysed after 16 h; α-Flag-agarose at 4°C for 1 hour; immunoblot (Figure 2C); lysis buffer HNG or RIPA. (In general: A western blot detects proteins with antibodies after separation by electrophoresis.)

Another test deals with T2, SCAI aa 460–606 (ΔN) (UniProt Q8N9R8).
T2 sequence: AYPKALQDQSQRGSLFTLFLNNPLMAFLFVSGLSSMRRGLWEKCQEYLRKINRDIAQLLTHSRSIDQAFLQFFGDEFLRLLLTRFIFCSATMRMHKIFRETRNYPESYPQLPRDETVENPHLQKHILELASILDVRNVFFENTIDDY
The test is described as above.

No constants are given. Whether binding was seen depends on the method and setting. Binding seen in cells or lysates may run through a third protein. Some results given as binding are weak or reduced against the parent protein; the word gives no strength.

Consider “Myc-tagged BRM (from UniProt P51531 1-1590)”, for which the binding result with SCAI aa 1–212 (n-t) is recorded as “binds”; with SCAI aa 460–606 (ΔN), “no binding”.
